Common to all, as to experiment: cryo-EM structure
Assay [1] deals with T1, SNRNP25 (human (endogenous in HEK293F)) (UniProt Q9BV90).
T1 sequence: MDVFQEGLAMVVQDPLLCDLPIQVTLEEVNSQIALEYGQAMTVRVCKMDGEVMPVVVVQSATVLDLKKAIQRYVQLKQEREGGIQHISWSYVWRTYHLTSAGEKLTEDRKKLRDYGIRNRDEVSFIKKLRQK

Amino acid sequences for entries named in this document (tags omitted).
UniProt P62318: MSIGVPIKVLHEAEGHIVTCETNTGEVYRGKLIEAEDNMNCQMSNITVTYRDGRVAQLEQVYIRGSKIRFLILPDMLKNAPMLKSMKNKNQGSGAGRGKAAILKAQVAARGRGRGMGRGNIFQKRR

In assay [2] the target is SmD3 (human (endogenous in HEK293F)) (UniProt P62318).
The target in assay [3] is T2, SNRNP35 (ProteinA-TEV-3×HA-tagged) (human) (UniProt Q16560).
T2 sequence: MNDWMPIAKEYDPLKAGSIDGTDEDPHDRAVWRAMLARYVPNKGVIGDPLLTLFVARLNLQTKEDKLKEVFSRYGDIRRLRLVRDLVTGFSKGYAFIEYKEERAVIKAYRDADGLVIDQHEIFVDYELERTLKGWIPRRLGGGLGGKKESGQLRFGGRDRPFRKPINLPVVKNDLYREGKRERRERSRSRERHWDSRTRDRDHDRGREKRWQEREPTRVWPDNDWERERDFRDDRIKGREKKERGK

Results are given in words; binding and its absence hold for the method and conditions named. Some results given as binding are weak or reduced against the parent protein; the word gives no strength. For part of these data: Where a sequence is shown, tags or fusion partners need not be part of it.

B1: PDCD7 (protein, UniProt Q8N8D1 1-485)
chain: MALPPFFGQGRPGPPPPQPPPPAPFGCPPPPLPSPAFPPPLPQRPGPFPGASAPFLQPPLALQPRASAEASRGGGGAGAFYPVPPPPLPPPPPQCRPFPGTDAGERPRPPPPGPGPPWSPRWPEAPPPPADVLGDAALQRLRDRQWLEAVFGTPRRAGCPVPQRTHAGPSLGEVRARLLRALRLVRRLRGLSQALREAEADGAAWVLLYSQTAPLRAELAERLQPLTQAAYVGEARRRLERVRRRRLRLRERAREREAEREAEAARAVEREQEIDRWRVKCVQEVEEKKREQELKAAADGVLSEVRKKQADTKRMVDILRALEKLRKLRKEAAARKGVCPPASADETFTHHLQRLRKLIKKRSELYEAEERALRVMLEGEQEEERKRELEKKQRKEKEKILLQKREIESKLFGDPDEFPLAHLLEPFRQYYLQAEHSLPALIQIRHDWDQYLVPSDHPKGNFVPQGWVLPPLPSNDIWATAVKLH
Take B1: the binding result in assay [1] is given as “binds”.

B2: ZMAT5 (protein, UniProt Q9UDW3 1-170)
chain: MGKRYFCDYCDRSFQDNLHNRKKHLNGLQHLKAKKVWYDMFRDAAAILLDEQNKRPCRKFLLTGQCDFGSNCRFSHMSERDLQELSIQVEEERRAREWLLDAPELPEGHLEDWLEKRAKRLSSAPSSRAEPIRTTVFQYPVGWPPVQELPPSLRAPPPGGWPLQPRVQWG
B2: in assay [2], the binding entry is recorded as “binds”.

B3: SNRNP25 (protein, UniProt Q9BV90 1-132)
chain: MDVFQEGLAMVVQDPLLCDLPIQVTLEEVNSQIALEYGQAMTVRVCKMDGEVMPVVVVQSATVLDLKKAIQRYVQLKQEREGGIQHISWSYVWRTYHLTSAGEKLTEDRKKLRDYGIRNRDEVSFIKKLRQK
For the molecule B3, the binding entry in assay [3] is given as “binds”.

(Values after publication doi:10.1101/2023.12.22.573053.)
